Legend:
Experiment in all cases: Cell proliferation inhibition
[1] = tested on: human T-lymphocyte cells (CEM); conditions: IC50 in normal cell line (Hek293)/IC50 in CEM
[2] = tested on: human pancreatic carcinoma cells (Mia Paca-2); conditions: IC50 in normal cell line (Hek293)/IC50 in Mia Paca-2
[3] = tested on: human melanoma cells (SK-Mel 5); conditions: IC50 in normal cell line (Hek293)/IC50 in SK-Mel 5

Row | SMILES | SI [1] | SI [2] | SI [3]
1 | O=S(=O)(O)c1ccc2[nH]c(-c3ccc[nH]3)nc2c1 [Compound 7, 2-(1H-pyrrol-2-yl)-1H-benzimidazole-5-sulfonic Acid] | 2.16 | 2.39 | 
2 | O=S(=O)(O)c1ccc2[nH]c(-c3cccs3)nc2c1 [Compound 9, 2-(thiophen-2-yl)-1H-benzimidazole-5-sulfonic Acid] | 2.94 | 2.33 | 
3 | c1c[nH]c(-c2nc3ccccc3[nH]2)c1 [Compound 10, 2-(1H-pyrrol-2-yl)-1H-benzimidazole] | 2.21 | 2.07 | 3.20
4 | c1csc(-c2nc3ccccc3[nH]2)c1 [Compound 12, 2-(thiophen-2-yl)-1H-benzimidazole] |  |  | 1.16
5 | O=C(O)c1ccc2[nH]c(-c3ccco3)nc2c1 [Compound 14, 2-(furan-2-yl)-1H-benzimidazole-5-carboxylic Acid] | 1.33 |  | 
6 | O=C(O)c1ccc2[nH]c(-c3cccs3)nc2c1 [Compound 15, 2-(thiophen-2-yl)-1H-benzimidazole-5-carboxylic Acid] | 2 | 1.25 | 
